No constants are given. Whether binding was seen depends on the method and setting. In cells and extracts the contact can be indirect. Some binding calls cover weakened binding; strength is not graded here. Sequences can lack the tags named with a protein.
T1: Fps1-3xFLAG (S. cerevisiae), P23900
T1 chain: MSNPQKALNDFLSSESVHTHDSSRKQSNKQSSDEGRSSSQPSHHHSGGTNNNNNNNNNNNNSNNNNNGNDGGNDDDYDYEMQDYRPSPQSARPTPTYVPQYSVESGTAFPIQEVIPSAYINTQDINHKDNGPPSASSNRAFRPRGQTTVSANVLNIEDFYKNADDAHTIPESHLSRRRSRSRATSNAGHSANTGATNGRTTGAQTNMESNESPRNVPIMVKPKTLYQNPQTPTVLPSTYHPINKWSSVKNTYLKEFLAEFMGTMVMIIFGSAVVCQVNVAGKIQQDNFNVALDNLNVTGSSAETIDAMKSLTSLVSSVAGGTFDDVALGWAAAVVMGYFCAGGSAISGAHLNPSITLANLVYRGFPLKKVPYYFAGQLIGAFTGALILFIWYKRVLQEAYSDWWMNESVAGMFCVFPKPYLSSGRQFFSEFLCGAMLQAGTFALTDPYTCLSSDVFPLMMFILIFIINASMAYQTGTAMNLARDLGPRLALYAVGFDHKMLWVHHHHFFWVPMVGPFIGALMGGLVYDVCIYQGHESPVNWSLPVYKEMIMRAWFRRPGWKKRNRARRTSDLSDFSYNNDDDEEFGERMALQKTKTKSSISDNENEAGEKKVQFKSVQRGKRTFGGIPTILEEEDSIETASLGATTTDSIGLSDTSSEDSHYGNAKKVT

T2: Fps1(S181A S185A S570A)-3xFLAG (S. cerevisiae) (UniProt P23900)
T2 sequence: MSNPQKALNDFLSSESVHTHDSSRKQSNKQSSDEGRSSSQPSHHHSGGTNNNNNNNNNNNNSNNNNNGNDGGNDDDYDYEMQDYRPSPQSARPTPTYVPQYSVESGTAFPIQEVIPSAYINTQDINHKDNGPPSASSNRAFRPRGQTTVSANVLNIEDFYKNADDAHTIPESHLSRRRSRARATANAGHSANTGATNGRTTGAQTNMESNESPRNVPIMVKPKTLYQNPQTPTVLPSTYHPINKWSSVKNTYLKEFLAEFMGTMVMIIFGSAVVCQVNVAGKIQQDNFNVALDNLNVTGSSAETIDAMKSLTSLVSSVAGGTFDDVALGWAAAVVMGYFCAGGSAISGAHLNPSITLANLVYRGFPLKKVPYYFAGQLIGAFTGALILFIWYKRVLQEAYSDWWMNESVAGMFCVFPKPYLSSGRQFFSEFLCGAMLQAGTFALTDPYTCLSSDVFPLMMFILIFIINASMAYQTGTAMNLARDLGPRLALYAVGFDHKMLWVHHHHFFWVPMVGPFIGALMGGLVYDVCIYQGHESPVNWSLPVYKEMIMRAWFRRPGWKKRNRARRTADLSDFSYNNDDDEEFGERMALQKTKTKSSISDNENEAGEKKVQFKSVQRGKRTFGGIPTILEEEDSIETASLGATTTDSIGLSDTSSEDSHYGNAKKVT


Tests used:
[1] = molecular target: T1, Fps1-3xFLAG (S. cerevisiae), P23900; assay: co-IP; Fps1-3xFLAG immunoprecipitated from clarified yeast lysate (10 mg protein) with anti-FLAG agarose, 2 hr at 4°C, in TNE+Triton+NP-40 (50 mM Tris-Cl pH 7.5, 150 mM NaCl, 0.5% Triton-X100, 1.0% NP-40); Rgc2 detected by anti-HA immunoblot; details: remark: other sources report otherwise
[2] = molecular target: T2, Fps1(S181A S185A S570A)-3xFLAG (S. cerevisiae); assay: as above

binding [1]	binding [2]	Binder
binds	–	Rgc2-3xHA, P48361 1-1146 (protein) MSDYFSSRPSQTLTPMGNKPSGGGGGDDASSIHSKSSQYLMDILPDSMTLNESVSSIVANNQAKEFILPETDERSPYFINVPIPKAQPTSTTETKKPLAGDEAIDGQFVKEYPTDILVDRFYKWKKILKGLVIYLREVAYAQEQFARINYQLKGSVKFPFLTDIDETTNTITDPFTTAPRGPKKAQPAQKKVGLTDSEQFQMQMQQEQQENAVQAPTDESKMSLAPHEYKPVQTTESDNTSAASGFVKFGSGSIQDIQVILKKYHLSLANQQFKISKEITSTVIPKLEELRKDLRYKITEIKDLHGDFKTNIGAHIQLTSQLLKKYIAAVKFMNAHGIGNDRASPTNKKPHKLDPKHDPYLLKLQLDLQLKRQVAEETYLQEAFINLQSSGLQLEKIIYTKIQHALLRYSALIDSEARLMIKNMCQELQHGIISKPPAFEWDNFVTQHPSCLLNWKSNDPIPPPRKVSDVIYPHMKSPLAKCIKAGYFLKKSELLPTYHQGYFVLTSNYIHEFQSSDFYNLSSSTPNSTKSSAYSSSVSIADTYANANNAKANNHHRQASDVHNSSTTTGGTAGANGIRGIRKKSYLAPIMSIPLNDCTLKDASSTKFVLVGKPTLNENADVRKSSSSTYLSGSSQASLPKYGHETAKIFSKAPFHKFLKGSKPKNKNTKSSELDQFYAAAQKESNNYVTWTFKIVSPEPSEEELKHFKRWVQDLKNLTSFNDTKDRIKFIEDRVMKSHRFKAGHMSRNSVNIGSHTPCLTDSTFTLQDGTTTSVNLKGRAEKPQYIHIQNNSLADFDGNGFRSKVNTPAIDDYGNLITVERRPAQSPHQYSDYMATSGNTTPSYSSGSRPQSMYNGYNPAVSITSNGMMLQQSTANNNTNPTTNLRHQRNISQTSSLPGFSYTSLSLPVNSPGSSNSESSSGGYFAIPLHGNNNNNNYTQRNSEGSSPCYNDDQIRQQQQPLQMQPLSRTSSSSVNVTAMRSTSAGNSITANAPVVPKVMVNNQNVKTVAADQSATAPSSPTMNSSVTTINRESPYQTLKKTNSTGNVPCLTAEKTHAHPAFYKRGNNSAQNLTTSSSTASRVHPIRKHKKNVSFSSLNSLMFSKKGANHGGNLMTNQFMSGGIQEDDGDSTNNDTIKLNQSIYS
–	binds	Rgc2-3xHA (protein, UniProt P48361 1-1146) MSDYFSSRPSQTLTPMGNKPSGGGGGDDASSIHSKSSQYLMDILPDSMTLNESVSSIVANNQAKEFILPETDERSPYFINVPIPKAQPTSTTETKKPLAGDEAIDGQFVKEYPTDILVDRFYKWKKILKGLVIYLREVAYAQEQFARINYQLKGSVKFPFLTDIDETTNTITDPFTTAPRGPKKAQPAQKKVGLTDSEQFQMQMQQEQQENAVQAPTDESKMSLAPHEYKPVQTTESDNTSAASGFVKFGSGSIQDIQVILKKYHLSLANQQFKISKEITSTVIPKLEELRKDLRYKITEIKDLHGDFKTNIGAHIQLTSQLLKKYIAAVKFMNAHGIGNDRASPTNKKPHKLDPKHDPYLLKLQLDLQLKRQVAEETYLQEAFINLQSSGLQLEKIIYTKIQHALLRYSALIDSEARLMIKNMCQELQHGIISKPPAFEWDNFVTQHPSCLLNWKSNDPIPPPRKVSDVIYPHMKSPLAKCIKAGYFLKKSELLPTYHQGYFVLTSNYIHEFQSSDFYNLSSSTPNSTKSSAYSSSVSIADTYANANNAKANNHHRQASDVHNSSTTTGGTAGANGIRGIRKKSYLAPIMSIPLNDCTLKDASSTKFVLVGKPTLNENADVRKSSSSTYLSGSSQASLPKYGHETAKIFSKAPFHKFLKGSKPKNKNTKSSELDQFYAAAQKESNNYVTWTFKIVSPEPSEEELKHFKRWVQDLKNLTSFNDTKDRIKFIEDRVMKSHRFKAGHMSRNSVNIGSHTPCLTDSTFTLQDGTTTSVNLKGRAEKPQYIHIQNNSLADFDGNGFRSKVNTPAIDDYGNLITVERRPAQSPHQYSDYMATSGNTTPSYSSGSRPQSMYNGYNPAVSITSNGMMLQQSTANNNTNPTTNLRHQRNISQTSSLPGFSYTSLSLPVNSPGSSNSESSSGGYFAIPLHGNNNNNNYTQRNSEGSSPCYNDDQIRQQQQPLQMQPLSRTSSSSVNVTAMRSTSAGNSITANAPVVPKVMVNNQNVKTVAADQSATAPSSPTMNSSVTTINRESPYQTLKKTNSTGNVPCLTAEKTHAHPAFYKRGNNSAQNLTTSSSTASRVHPIRKHKKNVSFSSLNSLMFSKKGANHGGNLMTNQFMSGGIQEDDGDSTNNDTIKLNQSIYS

From paper PMC4552222
